Results: paper PMC12561377

Molecular target: T1, zinc finger DHHC‐type palmitoyltransferase 12 (ZDHHC12) (human (endogenous in Huh7 and Hep3B)) (UniProt Q96GR4)
T1 sequence: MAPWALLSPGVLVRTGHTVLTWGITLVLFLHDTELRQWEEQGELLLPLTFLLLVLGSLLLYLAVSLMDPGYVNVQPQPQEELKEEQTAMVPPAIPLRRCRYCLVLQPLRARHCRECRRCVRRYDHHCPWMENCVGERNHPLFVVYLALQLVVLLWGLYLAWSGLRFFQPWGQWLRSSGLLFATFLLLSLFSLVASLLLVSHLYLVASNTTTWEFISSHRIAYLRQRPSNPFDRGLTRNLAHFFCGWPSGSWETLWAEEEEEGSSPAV
Test: affinity purification with mass spectrometry; ZDHHC12 pull‐down from Hep3B cells with antibodies to ZDHHC12, then mass spectrometry

B1: histone deacetylase 8 (HDAC8) (enzyme, UniProt Q9BY41 1-377)
chain: MEEPEEPADSGQSLVPVYIYSPEYVSMCDSLAKIPKRASMVHSLIEAYALHKQMRIVKPKVASMEEMATFHTDAYLQHLQKVSQEGDDDHPDSIEYGLGYDCPATEGIFDYAAAIGGATITAAQCLIDGMCKVAINWSGGWHHAKKDEASGFCYLNDAVLGILRLRRKFERILYVDLDLHHGDGVEDAFSFTSKVMTVSLHKFSPGFFPGTGDVSDVGLGKGRYYSVNVPIQDGIQDEKYYQICESVLKEVYQAFNPKAVVLQLGADTIAGDPMCSFNMTPVGIGKCLKYILQWQLATLILGGGGYNLANTARCWTYLTGVILGKTLSSEIPDHEFFTAYGPDYVLEITPSCRPDRNEPHRIQQILNYIKGNLKHVV
Question: How did the binding turn out when B1 was run?
Answer: binds

No constants are given. Whether binding was seen depends on the method and setting. Binding seen in cells or lysates may run through a third protein. These calls come from enrichment with a bait or labelling near it, and not all partners need be listed. Where a sequence is shown, tags or fusion partners need not be part of it.
